In this experiment the target is human NHE1 R651-D692 (H2) (human) (UniProt P19634). The experiment is described as follows: NMR chemical shifts against peptide concentration.

These are yes or no findings as the source states them, for the method shown. Some binding calls cover weakened binding; strength is not graded here.

Regarding “human NHE1 R651-D692 (H2) (from UniProt P19634 651-692) (peptide)”, the binding entry is reported as “binds weakly”.

Values taken from paper doi:10.1101/2020.08.04.236463.
